Test results from PubChem BioAssay AID434947 (Broad Institute, 2010).
The campaign covered roughly 2,200 compounds. About 15 (0.7%) were called active.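 The calls were made as follows: active = fitted half-maximal concentration for loss of luminescence signal no more than a set limit of log units above the top tested concentration; inconclusive = flat fit with 30 to 70% signal loss, or invalid fit; inactive = half-maximal concentration above that set limit.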 The list shows a part of the results.

Experiment: ADP-Glo luciferase signal interference – biochemical, luminescence, cell-free, homogeneous, artefact control for GSK3beta inhibitor project, dose response (AID 434947);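 also: kinase-free counter screen of ADP-Glo detection reagents for GSK3beta hits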
Conditions: Cell-free ADP-Glo reagents, 5 uM ADP

EC50, inactive:
Cc1c(C(=O)N/N=C/c2ccccn2)nnn1-c1nonc1N > 30 µM
O=C(NCCc1nnc2ccc(NCC3CCCO3)nn12)c1ccccc1 (stereo not drawn) > 30 µM
N#Cc1c(Nc2ccccc2)sc(C(=O)c2ccccc2)c1N > 30 µM
CC(C)N1CCc2c(sc(NC(=O)CCS(=O)(=O)c3ccccc3)c2C(N)=O)C1 > 30 µM
Cc1ccccc1NC(=O)CSc1nc(N)c(C#N)c(-c2cccs2)c1C#N > 30 µM
Cc1ccc(C2C3=C(CC(C)(C)CC3=O)Nc3onc(C)c32)cc1 (stereo not drawn) > 30 µM
COc1ccc(OC)c(C2Nc3ccccc3NC3=C2C(=O)CC(C)(C)C3)c1 (stereo not drawn) > 30 µM
Cc1ccc(CSc2ccc(-c3cccs3)nn2)cc1 > 30 µM
CO/N=C/c1ccc(N2CCOCC2)c([N+](=O)[O-])c1 > 30 µM
COc1ccc(Cl)cc1-c1nc(N)nc(NC2CCCCC2)n1 > 30 µM
Nc1nc(NCc2ccco2)nc(NCCO)c1[N+](=O)[O-] > 30 µM
CC(C)N1CC(C(=O)Nc2ccc(Br)c(Cl)c2)CC1=O (stereo not drawn) > 30 µM
O=C(c1ccccc1)c1ccc(NCCCn2ccnc2)c([N+](=O)[O-])c1 > 30 µM
Cc1ccc2c(C)c(C(=O)Nc3nnc(C)s3)oc2c1 > 30 µM
CCc1ccccc1N1C(=O)CC(N2CCc3ccccc32)C1=O (stereo not drawn) > 30 µM
O=C(Nc1ncnc2sc3c(c12)CCCC3)c1ccncc1 > 30 µM
O=C(N/N=C\c1cccnc1)c1cc(-c2ccccc2)nc2c(Cl)cccc12 > 30 µM
Cc1cc(NC(=O)COc2cccnc2[N+](=O)[O-])no1 > 30 µM
CCN(CC)Cc1c(C(=O)N/N=C/c2cccnc2)nnn1-c1nonc1N > 30 µM
Cc1ccc(-c2nc(Nc3cccc(O)c3)c3ccccc3n2)cc1 > 30 µM
CCOC(=O)c1nnn(-c2nonc2N)c1-c1ccc(C)cc1 > 30 µM
Cc1cc(=O)nc2c3ccccc3n(CC(=O)NCCCN3CCCCC3C)n12 (stereo not drawn) > 30 µM
O=c1oc(-c2cccs2)nc2sc3c(c12)CCC3 > 30 µM
O=C(NCCCN1CCN(Cc2ccccc2)CC1)C1CCN(S(=O)(=O)N2CCCC2)CC1 > 30 µM
COC(=O)c1ccc(CSc2nnc(-c3ccncc3)o2)cc1 > 30 µM
COc1ccc(-c2nn(-c3ccccc3)cc2C=O)cc1[N+](=O)[O-] > 30 µM
O=C(O)CCN1C(=O)/C(=C\c2ccc(-c3nc4ccccc4s3)o2)SC1=S > 30 µM
CCN1CCN(CCCNC(=O)c2ccc3c(c2)NC(=O)c2ccccc2S3)CC1 > 30 µM
CCOCCCn1c(=NC(C)=O)c(C#N)cc2c(=O)n3cccc(C)c3nc21 > 30 µM
c1ccc(-c2nc(NCCCn3ccnc3)c3ccccc3n2)cc1 > 30 µM
O=C(NCC(c1ccco1)N1CCc2ccccc2C1)c1ccccc1Cl (stereo not drawn) > 30 µM
Clc1ccc2c(c1)Nc1ccccc1CC2 > 30 µM
O=C(Nc1ccc(O)c2c(=O)cc(-c3ccccc3Cl)oc12)c1ccc(Cl)c(Cl)c1 > 30 µM
CCSc1ncnc2c(C#N)c3n(c12)CCCCC3 > 30 µM
Cc1ccc(Nc2nc(-c3ccncc3)nc3ccccc23)cc1 > 30 µM
Nc1nonc1-n1nnc(C(=O)N/N=C/c2ccccc2F)c1-c1cccs1 > 30 µM
O=C(NCC(c1ccco1)N1CCN(c2ccc(F)cc2)CC1)c1ccc2c(c1)OCO2 (stereo not drawn) > 30 µM
c1ccc2c(c1)oc1c(NCCCn3ccnc3)ncnc12 > 30 µM

3 structures already listed, sorted by length of the SMILES, falling:
EC50, inactive:
O=C(NCCCN1CCN(Cc2ccccc2)CC1)C1CCN(S(=O)(=O)N2CCCC2)CC1 > 30 µM
CC(C)N1CCc2c(sc(NC(=O)CCS(=O)(=O)c3ccccc3)c2C(N)=O)C1 > 30 µM
c1ccc2c(c1)oc1c(NCCCn3ccnc3)ncnc12 > 30 µM
